In article PMC4627417:
Results are given in words; binding and its absence hold for the method and conditions named. In cells and extracts the contact can be indirect. These calls come from enrichment with a bait or labelling near it, and not all partners need be listed. Where a sequence is shown, tags or fusion partners need not be part of it.

B1: NHP2 (protein, UniProt Q9NX24 1-153)
chain: MTKIKADPDGPEAQAEACSGERTYQELLVNQNPIAQPLASRRLTRKLYKCIKKAVKQKQIRRGVKEVQKFVNKGEKGIMVLAGDTLPIEVYCHLPVMCEDRNLPYVYIPSKTDLGAAAGSKRPTCVIMVKPHEEYQEAYDECLEEVQSLPLPL
B2: TOP3B (protein, UniProt O95985 1-862)
chain: MKTVLMVAEKPSLAQSIAKILSRGSLSSHKGLNGACSVHEYTGTFAGQPVRFKMTSVCGHVMTLDFLGKYNKWDKVDPAELFSQAPTEKKEANPKLNMVKFLQVEGRGCDYIVLWLDCDKEGENICFEVLDAVLPVMNKAHGGEKTVFRARFSSITDTDICNAMACLGEPDHNEALSVDARQELDLRIGCAFTRFQTKYFQGKYGDLDSSLISFGPCQTPTLGFCVERHDKIQSFKPETYWVLQAKVNTDKDRSLLLDWDRVRVFDREIAQMFLNMTKLEKEAQVEATSRKEKAKQRPLALNTVEMLRVASSSLGMGPQHAMQTAERLYTQGYISYPRTETTHYPENFDLKGSLRQQANHPYWADTVKRLLAEGINRPRKGHDAGDHPPITPMKSATEAELGGDAWRLYEYITRHFIATVSHDCKYLQSTISFRIGPELFTCSGKTVLSPGFTEVMPWQSVPLEESLPTCQRGDAFPVGEVKMLEKQTNPPDYLTEAELITLMEKHGIGTDASIPVHINNICQRNYVTVESGRRLKPTNLGIVLVHGYYKIDAELVLPTIRSAVEKQLNLIAQGKADYRQVLGHTLDVFKRKFHYFVDSIAGMDELMEVSFSPLAATGKPLSRCGKCHRFMKYIQAKPSRLHCSHCDETYTLPQNGTIKLYKELRCPLDDFELVLWSSGSRGKSYPLCPYCYNHPPFRDMKKGMGCNECTHPSCQHSLSMLGIGQCVECESGVLVLDPTSGPKWKVACNKCNVVAHCFENAHRVRVSADTCSVCEAALLDVDFNKAKSPLPGDETQHMGCVFCDPVFQELVELKHAASCHPMHRGGPGRRQGRGRGRARRPPGKPNPRRPKDKMSALAAYFV
B3: RBM42 (protein, UniProt Q9BTD8 1-480)
chain: MAGAGPAPGLPGAGGPVVPGPGAGIPGKSGEERLKEMEAEMALFEQEVLGAPVPGIPTAVPAVPTVPTVPTVEAMQVPAAPVIRPIIATNTYQQVQQTLEARAAAAATVVPPMVGGPPFVGPVGFGPGDRSHLDSPEAREAMFLRRAAVAPQRAPILRPAFVPHVLQRADSALSSAAAGPRPMALRPPHQALVGPPLPGPPGPPMMLPPMARAPGPPLGSMAALRPPLEEPAAPRELGLGLGLGLKEKEEAVVAAAAGLEEASAAVAVGAGGAPAGPAVIGPSLPLALAMPLPEPEPLPLPLEVVRGLLPPLRIPELLSLRPRPRPPRPEPPPGLMALEVPEPLGEDKKKGKPEKLKRCIRTAAGSSWEDPSLLEWDADDFRIFCGDLGNEVNDDILARAFSRFPSFLKAKVIRDKRTGKTKGYGFVSFKDPSDYVRAMREMNGKYVGSRPIKLRKSMWKDRNLDVVRKKQKEKKKLGLR
B4: CSTF3 (protein, UniProt Q12996 1-717)
chain: MSGDGATEQAAEYVPEKVKKAEKKLEENPYDLDAWSILIREAQNQPIDKARKTYERLVAQFPSSGRFWKLYIEAEIKAKNYDKVEKLFQRCLMKVLHIDLWKCYLSYVRETKGKLPSYKEKMAQAYDFALDKIGMEIMSYQIWVDYINFLKGVEAVGSYAENQRITAVRRVYQRGCVNPMINIEQLWRDYNKYEEGINIHLAKKMIEDRSRDYMNARRVAKEYETVMKGLDRNAPSVPPQNTPQEAQQVDMWKKYIQWEKSNPLRTEDQTLITKRVMFAYEQCLLVLGHHPDIWYEAAQYLEQSSKLLAEKGDMNNAKLFSDEAANIYERAISTLLKKNMLLYFAYADYEESRMKYEKVHSIYNRLLAIEDIDPTLVYIQYMKFARRAEGIKSGRMIFKKAREDTRTRHHVYVTAALMEYYCSKDKSVAFKIFELGLKKYGDIPEYVLAYIDYLSHLNEDNNTRVLFERVLTSGSLPPEKSGEIWARFLAFESNIGDLASILKVEKRRFTAFKEEYEGKETALLVDRYKFMDLYPCSASELKALGYKDVSRAKLAAIIPDPVVAPSIVPVLKDEVDRKPEYPKPDTQQMIPFQPRHLAPPGLHPVPGGVFPVPPAAVVLMKLLPPPICFQGPFVQVDELMEIFRRCKIPNTVEEAVRIITGGAPELAVEGNGPVESNAVLTKAVKRPNEDSDEDEEKGAVVPPVHDIYRARQQKRIR

target: 3XMyc-RPRD1B wild type (full length) (human) (UniProt Q9NQG5); experiment: affinity purification with mass spectrometry; SILAC: tetracycline-induced 3XMyc-RPRD1B WT (heavy) and MT (light) in 293 Flp-In cells, anti-Myc immunoprecipitates from total lysate combined and analysed by MS

binding | Binder
binds | B1
binds | B2
binds | B3
binds | B4
